What follows is the remainder of the data, with few or none of the targets with a hit. Single values of this set are uncertain. This is a selection; strong and weak results do not stand in their true shares.
compound: COC(=O)/C=C/c1ccccc1 [methyl cinnamate]; assay: log2 ratio of iodoacetamide-alkyne labeling of the cysteine site, DMSO over compound (competition); higher = stronger covalent engagement of the cysteine by the compound, active = 1 or more; settings: 500 µM; treatment time 1 h; system: HEK293T cell lysate
In short: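 For each cysteine, the log2 competition ratio is mean control-channel reporter intensity over mean compound-channel reporter intensity. HEK293T lysate (2 mg/mL) was exposed to vehicle or electrophile (500 µM, 1 h, ambient temperature), labelled with iodoacetamide alkyne (1 h), clicked to sCIP-TMT reagents, digested overnight with trypsin at 37 °C, streptavidin-enriched and analysed by Orbitrap Eclipse LC-MS/MS with FAIMS and FragPipe. Cysteines quantified in only one of three replicates, each with duplicate channels, were excluded.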

Chains of the proteins cited; added tags and fusions are not shown. Lines headed by an entry give the natural chain unless they say otherwise; changes in a name come on top.
UniProt Q9UBB6: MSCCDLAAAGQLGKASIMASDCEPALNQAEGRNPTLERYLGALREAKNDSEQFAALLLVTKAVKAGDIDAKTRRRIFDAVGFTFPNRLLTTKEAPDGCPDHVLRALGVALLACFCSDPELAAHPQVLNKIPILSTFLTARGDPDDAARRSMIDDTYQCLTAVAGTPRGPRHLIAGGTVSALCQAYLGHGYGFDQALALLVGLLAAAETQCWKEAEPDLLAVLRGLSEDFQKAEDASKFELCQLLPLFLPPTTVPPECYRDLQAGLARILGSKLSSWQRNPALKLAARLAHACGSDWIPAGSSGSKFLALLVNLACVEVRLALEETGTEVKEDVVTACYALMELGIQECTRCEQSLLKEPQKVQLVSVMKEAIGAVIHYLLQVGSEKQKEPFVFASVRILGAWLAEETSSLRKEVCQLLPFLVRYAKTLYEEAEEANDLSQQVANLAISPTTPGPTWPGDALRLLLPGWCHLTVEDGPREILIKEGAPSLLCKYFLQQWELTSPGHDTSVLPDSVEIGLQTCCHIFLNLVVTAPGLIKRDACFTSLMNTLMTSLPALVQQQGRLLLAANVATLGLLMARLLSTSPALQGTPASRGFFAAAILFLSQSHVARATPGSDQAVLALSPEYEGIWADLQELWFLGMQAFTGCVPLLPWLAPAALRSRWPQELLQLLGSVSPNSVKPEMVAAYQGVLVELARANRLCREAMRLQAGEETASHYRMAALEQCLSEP
UniProt Q9NW64: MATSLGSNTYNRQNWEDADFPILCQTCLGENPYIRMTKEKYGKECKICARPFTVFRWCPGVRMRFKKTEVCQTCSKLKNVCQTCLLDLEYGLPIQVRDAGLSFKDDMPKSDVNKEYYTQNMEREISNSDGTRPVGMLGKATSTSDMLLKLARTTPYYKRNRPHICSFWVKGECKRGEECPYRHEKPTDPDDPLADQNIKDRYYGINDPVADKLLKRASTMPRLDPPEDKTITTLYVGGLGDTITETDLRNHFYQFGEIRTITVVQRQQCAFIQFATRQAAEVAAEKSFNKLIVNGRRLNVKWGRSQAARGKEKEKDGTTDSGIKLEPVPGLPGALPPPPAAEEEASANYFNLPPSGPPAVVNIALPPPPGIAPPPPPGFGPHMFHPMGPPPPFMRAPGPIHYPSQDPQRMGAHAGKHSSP
UniProt Q9P258, whole entry, looked up: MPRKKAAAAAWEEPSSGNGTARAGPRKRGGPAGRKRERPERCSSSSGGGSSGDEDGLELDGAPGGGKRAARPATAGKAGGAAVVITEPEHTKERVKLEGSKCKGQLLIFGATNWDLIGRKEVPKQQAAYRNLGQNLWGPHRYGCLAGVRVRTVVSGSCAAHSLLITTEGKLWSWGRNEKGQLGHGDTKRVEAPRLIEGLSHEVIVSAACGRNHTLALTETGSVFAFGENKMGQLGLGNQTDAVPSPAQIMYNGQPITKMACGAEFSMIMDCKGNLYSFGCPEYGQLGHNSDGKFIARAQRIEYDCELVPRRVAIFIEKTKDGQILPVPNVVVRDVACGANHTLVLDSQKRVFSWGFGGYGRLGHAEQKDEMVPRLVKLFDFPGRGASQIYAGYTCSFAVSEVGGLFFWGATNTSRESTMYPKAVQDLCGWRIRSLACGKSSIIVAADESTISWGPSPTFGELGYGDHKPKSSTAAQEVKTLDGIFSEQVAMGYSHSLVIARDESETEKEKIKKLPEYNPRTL
UniProt Q9NZW5: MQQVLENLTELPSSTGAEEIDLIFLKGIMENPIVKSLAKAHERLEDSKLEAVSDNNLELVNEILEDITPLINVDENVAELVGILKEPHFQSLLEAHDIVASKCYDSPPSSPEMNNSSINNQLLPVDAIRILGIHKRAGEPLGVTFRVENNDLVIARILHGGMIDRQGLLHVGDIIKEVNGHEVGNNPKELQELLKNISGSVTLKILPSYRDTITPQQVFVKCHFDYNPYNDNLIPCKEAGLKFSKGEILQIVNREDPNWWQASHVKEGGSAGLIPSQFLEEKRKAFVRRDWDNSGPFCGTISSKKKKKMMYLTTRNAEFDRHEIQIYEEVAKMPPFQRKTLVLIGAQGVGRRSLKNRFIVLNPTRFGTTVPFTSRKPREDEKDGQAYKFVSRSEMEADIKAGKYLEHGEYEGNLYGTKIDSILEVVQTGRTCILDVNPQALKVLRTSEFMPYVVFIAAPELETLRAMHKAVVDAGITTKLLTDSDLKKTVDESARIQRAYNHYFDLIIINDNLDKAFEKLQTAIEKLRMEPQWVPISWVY
UniProt Q9NZ09: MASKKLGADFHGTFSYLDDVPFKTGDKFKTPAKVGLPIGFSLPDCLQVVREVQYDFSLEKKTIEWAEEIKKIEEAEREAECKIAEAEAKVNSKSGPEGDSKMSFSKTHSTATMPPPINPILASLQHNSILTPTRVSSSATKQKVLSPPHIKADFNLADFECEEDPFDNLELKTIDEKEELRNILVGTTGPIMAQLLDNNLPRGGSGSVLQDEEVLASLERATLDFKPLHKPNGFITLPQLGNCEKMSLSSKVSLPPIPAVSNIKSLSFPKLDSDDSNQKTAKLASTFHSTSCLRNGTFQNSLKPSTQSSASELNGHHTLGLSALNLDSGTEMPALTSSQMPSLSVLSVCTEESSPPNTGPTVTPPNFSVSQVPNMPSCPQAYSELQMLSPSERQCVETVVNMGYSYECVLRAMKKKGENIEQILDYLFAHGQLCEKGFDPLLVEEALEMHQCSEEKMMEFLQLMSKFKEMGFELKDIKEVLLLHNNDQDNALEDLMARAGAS
UniProt Q9UBN7: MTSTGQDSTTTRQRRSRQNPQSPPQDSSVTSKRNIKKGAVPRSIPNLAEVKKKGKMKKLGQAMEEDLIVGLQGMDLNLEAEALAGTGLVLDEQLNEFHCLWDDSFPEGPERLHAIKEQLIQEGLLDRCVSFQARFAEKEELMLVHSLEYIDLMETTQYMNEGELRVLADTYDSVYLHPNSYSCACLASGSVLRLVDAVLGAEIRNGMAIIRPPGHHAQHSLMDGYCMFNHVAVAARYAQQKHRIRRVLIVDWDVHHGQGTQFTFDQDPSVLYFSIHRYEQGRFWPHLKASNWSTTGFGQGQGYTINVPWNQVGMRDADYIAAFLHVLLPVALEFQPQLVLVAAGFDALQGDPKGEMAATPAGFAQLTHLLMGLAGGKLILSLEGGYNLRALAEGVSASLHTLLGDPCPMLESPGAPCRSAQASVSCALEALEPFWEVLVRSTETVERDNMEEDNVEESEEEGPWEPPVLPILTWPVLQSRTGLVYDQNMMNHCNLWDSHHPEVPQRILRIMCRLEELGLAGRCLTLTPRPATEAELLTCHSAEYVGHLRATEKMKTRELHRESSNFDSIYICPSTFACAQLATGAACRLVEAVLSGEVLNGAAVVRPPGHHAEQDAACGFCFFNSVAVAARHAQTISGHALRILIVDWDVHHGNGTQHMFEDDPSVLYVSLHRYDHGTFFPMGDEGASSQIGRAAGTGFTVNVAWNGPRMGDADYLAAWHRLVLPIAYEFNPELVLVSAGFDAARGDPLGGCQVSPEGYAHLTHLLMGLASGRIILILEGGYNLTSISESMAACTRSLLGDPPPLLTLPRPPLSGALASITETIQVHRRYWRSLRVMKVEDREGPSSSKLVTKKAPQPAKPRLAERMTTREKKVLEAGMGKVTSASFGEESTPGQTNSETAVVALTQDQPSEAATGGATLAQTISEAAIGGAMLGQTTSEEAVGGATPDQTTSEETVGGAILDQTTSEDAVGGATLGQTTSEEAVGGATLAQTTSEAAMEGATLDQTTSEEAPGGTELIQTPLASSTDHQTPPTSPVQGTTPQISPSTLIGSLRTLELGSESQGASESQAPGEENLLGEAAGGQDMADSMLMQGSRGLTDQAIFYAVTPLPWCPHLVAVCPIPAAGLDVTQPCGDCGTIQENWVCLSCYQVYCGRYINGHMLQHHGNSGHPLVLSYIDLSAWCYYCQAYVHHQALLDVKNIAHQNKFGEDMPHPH
UniProt Q9UFW8: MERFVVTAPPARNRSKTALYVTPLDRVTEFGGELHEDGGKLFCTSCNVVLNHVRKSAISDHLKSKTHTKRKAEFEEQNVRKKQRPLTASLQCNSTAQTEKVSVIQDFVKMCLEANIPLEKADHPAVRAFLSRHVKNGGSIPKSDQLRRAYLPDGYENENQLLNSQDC
UniProt Q9NWY4: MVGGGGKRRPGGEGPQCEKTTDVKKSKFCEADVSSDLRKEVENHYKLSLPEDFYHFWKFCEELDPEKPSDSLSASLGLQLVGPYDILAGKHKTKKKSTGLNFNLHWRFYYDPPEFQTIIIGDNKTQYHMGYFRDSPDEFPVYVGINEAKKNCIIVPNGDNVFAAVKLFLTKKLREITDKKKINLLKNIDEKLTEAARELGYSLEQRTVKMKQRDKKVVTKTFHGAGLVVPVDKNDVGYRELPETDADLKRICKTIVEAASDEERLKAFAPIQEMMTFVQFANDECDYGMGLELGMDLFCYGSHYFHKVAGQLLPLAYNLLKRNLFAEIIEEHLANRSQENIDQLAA
UniProt Q9NZ63: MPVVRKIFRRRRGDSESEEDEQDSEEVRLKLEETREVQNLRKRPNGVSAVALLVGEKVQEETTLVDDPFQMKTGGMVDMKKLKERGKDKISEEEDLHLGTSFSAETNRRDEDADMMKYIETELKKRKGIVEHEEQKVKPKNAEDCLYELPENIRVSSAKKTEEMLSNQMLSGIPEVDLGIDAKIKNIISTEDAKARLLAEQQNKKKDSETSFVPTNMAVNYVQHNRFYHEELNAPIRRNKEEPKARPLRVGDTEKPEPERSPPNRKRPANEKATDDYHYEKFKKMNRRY
UniProt Q9P0K7: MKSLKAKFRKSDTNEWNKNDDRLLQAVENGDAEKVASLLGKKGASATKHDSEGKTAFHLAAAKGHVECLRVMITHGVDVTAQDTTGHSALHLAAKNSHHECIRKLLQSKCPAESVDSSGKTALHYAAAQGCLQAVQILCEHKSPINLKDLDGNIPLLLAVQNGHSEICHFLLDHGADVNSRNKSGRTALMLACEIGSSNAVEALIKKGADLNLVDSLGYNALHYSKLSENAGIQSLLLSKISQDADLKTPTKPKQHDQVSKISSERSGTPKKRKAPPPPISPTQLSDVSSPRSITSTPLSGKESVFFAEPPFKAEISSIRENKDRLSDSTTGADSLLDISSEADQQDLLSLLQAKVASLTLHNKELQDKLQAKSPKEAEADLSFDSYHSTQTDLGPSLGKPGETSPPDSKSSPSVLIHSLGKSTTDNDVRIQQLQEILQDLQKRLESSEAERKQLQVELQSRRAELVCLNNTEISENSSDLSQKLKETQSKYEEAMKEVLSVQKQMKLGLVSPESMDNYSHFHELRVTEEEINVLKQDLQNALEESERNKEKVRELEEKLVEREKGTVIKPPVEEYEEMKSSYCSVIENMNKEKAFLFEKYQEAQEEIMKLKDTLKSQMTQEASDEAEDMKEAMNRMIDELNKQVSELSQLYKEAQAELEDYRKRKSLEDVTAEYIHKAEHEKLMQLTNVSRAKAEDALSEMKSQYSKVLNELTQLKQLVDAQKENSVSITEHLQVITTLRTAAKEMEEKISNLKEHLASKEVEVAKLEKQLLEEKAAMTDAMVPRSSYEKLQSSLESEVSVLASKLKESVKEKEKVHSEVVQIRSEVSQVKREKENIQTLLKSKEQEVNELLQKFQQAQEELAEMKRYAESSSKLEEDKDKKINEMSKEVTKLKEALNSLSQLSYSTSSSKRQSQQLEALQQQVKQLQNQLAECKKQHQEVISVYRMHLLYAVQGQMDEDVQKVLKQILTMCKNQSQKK
UniProt Q9UBF8: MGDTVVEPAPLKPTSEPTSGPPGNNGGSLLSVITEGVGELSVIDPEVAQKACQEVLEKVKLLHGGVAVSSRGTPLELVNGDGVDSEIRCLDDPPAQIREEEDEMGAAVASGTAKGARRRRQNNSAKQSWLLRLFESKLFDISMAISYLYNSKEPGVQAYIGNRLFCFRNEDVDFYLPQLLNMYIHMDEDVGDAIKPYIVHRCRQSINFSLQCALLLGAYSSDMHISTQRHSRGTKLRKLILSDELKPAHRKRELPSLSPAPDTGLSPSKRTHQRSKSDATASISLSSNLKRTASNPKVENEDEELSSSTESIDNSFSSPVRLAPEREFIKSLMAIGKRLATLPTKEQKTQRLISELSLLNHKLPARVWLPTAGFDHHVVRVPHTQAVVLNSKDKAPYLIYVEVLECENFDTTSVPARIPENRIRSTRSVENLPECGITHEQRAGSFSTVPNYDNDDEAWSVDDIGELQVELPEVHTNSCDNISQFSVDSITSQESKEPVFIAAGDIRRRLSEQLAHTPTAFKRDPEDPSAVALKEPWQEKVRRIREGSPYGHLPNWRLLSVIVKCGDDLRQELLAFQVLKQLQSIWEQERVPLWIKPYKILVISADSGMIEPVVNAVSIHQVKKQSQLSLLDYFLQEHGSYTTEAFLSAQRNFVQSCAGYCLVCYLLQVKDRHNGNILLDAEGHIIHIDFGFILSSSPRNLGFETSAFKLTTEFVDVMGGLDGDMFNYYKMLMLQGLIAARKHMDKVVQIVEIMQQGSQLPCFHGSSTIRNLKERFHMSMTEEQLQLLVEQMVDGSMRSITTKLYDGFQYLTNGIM

log2 ratio of iodoacetamide-alkyne labeling, inactive:
GNL3L C213 (UniProt Q9NVN8) 0.563
NCDN C4 (UniProt Q9UBB6) 0.397
PNPO C156 (UniProt Q9NVS9) 0.198
UniProt Q9NW64_C48 0.0437
SRP68 C586 (UniProt Q9UHB9) 0.0154
RCC2 C428 (UniProt Q9P258) 0.111
MPP6 C103 (UniProt Q9NZW5) 0.188
VPS18 C445 (UniProt Q9P253) -0.00352
LIMD1 C222 (UniProt Q9UGP4) 0.178
ANKIB1 C662 (UniProt Q9P2G1) 0.225
UBAP1 C161 (UniProt Q9NZ09) 0.327
VPS18 C22 (UniProt Q9P253) -0.0364
NCDN C3 (UniProt Q9UBB6) 0.397
ANKFY1 C460 (UniProt Q9P2R3) 0.309
HDAC6 C426 (UniProt Q9UBN7) -0.224
UBAP1 C45 (UniProt Q9NZ09) 0.163
CGGBP1 C111 (UniProt Q9UFW8) 0.389
UniProt Q9NVH0_C227 -0.263
KIAA1522 C575 (UniProt Q9P206) 0.0888
ATAD3A C618 (UniProt Q9NVI7) 0.411
UniProt Q9NWY4_C152 0.213
SPATS2L C367 (UniProt Q9NUQ6) -0.218
C9orf78 C145 (UniProt Q9NZ63) 0.277
MPP6 C298 (UniProt Q9NZW5) 0.271
ANKFY1 C742 (UniProt Q9P2R3) 0.0443
KCTD5 C28 (UniProt Q9NXV2) 0.313
BSDC1 C49 (UniProt Q9NW68) 0.0327
ALKBH4 C126 (UniProt Q9NXW9) -0.0741
DPP3 C176 (UniProt Q9NY33) 0.526
BCLAF1 C242 (UniProt Q9NYF8) -0.053
COPG2 C440 (UniProt Q9UBF2) 0.0844
MRPS18A C108 (UniProt Q9NVS2) 0.0733
MIOS C321 (UniProt Q9NXC5) -0.243
TBC1D13 C145 (UniProt Q9NVG8) -0.0275
RAI14 C110 (UniProt Q9P0K7) 0.206
UniProt Q9UBF8_C89 0.415
RCC2 C42 (UniProt Q9P258) 0.298

Two successive entries out of the list so far, quoted:
log2 ratio of iodoacetamide-alkyne labeling, inactive:
SRP68 C586 (UniProt Q9UHB9) 0.0154
RCC2 C428 (UniProt Q9P258) 0.111

Source: the supplement of paper PMC11006884
